The text below walks through data of PMC7862700.

The list shows a part of the results, in another mix than the full data. At the low end of the ranking the order means little.

The target in this assay is T1, FEV (UniProt Q99581).
T1 sequence: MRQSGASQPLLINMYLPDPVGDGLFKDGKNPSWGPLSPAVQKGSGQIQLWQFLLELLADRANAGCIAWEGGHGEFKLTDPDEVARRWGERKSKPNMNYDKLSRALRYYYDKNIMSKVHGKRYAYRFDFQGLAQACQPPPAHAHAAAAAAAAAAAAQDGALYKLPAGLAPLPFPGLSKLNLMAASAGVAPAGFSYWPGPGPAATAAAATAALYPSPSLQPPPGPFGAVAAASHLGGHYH
Put plainly: DAPPL (digital affinity profiling via proximity ligation, sequencing). The following applies: 10 mM Tris-HCl pH 7.5, 50 mM NaCl, 1 mM DTT, 4% glycerol, room temperature, 30 min; GST-TFs on glutathione beads, 16-mer random dsDNA library, 0.1% …; high values mean tight binding; double strand, one strand shown; scale: fold enrichment (6-mer frequency, TF over GST control).
GAACAC had a binding signal of 1.08.
The sequence TTGACA showed a binding signal of 1.34.
Sequence ACATTA came in with a binding signal of 1.16.
In turn, TTTGAA returned a binding signal of 1.13.
Regarding ATGTAC, the binding signal was found to be 1.3.
AATGGG came in with a binding signal of 1.25.
As for GGAACA, the figure is 1.01; as for GGCTCT, 1.35; as for TTCAGT, 1.01.
Sequence AAATGG yielded a binding signal of 1.42.
Regarding AAAGGT, the binding signal was found to be 0.974.
As for GATGCC, the figure is 1.41; as for GAAATG, 1.77.
TAAGAT gave a binding signal of 1.15.
In the case of TTCCGT, the binding signal came to 1.86.
For ACTTCA, the binding signal was 1.38.
As for TCACTT, the figure is 1.99; as for CTGTCA, 1.03; as for ATACAA, 1.09.
For the sequence GTACTC, the binding signal came out at 1.11.
In turn, TTATGT registered a binding signal of 1.15.
With TGGTTC the figure was 1.35.
As to ATATAC, the binding signal came out at 1.11.
Sequence ACTACT showed a binding signal of 1.3.
Sequence TGCTCA had a binding signal of 1.39.
On to GAATCT, for which the binding signal was 1.03.
ATCTCG had a binding signal of 1.19.
For GCGACT, the binding signal turned out to be 1.31.
Consider TGGTAG, for which the binding signal stood at 0.999.
As for TTGCGT, the figure is 0.956; as for CCATAA, 1.11; as for ATGACG, 1.32.
ATGGAT registered a binding signal of 1.04.
Sequence TGACAC displayed a binding signal of 1.11.
As for TCTTAG, the binding signal came to 1.16.
In turn, TGGCAG had a binding signal of 1.18.
As for CTTCAG, the binding signal is 1.26.
Sequence AGAAAT showed a binding signal of 1.12.
In turn, AACGTA showed a binding signal of 0.987.
